# Test results taken from patent publication US20140227292A1 (PROTHENA BIOSCIENCES, published 2014).
# Positions count from the first letter of the chain named. These are yes or no findings as the source states them, for the method shown. Some entries that bind do so weakly or less than the wild type. For some assays here: Where a sequence is shown, tags or fusion partners need not be part of it.
# T1: human MCAM (melanoma cell adhesion molecule), expressed on transfected CHO cells (human) (UniProt P43121)
# T1 sequence: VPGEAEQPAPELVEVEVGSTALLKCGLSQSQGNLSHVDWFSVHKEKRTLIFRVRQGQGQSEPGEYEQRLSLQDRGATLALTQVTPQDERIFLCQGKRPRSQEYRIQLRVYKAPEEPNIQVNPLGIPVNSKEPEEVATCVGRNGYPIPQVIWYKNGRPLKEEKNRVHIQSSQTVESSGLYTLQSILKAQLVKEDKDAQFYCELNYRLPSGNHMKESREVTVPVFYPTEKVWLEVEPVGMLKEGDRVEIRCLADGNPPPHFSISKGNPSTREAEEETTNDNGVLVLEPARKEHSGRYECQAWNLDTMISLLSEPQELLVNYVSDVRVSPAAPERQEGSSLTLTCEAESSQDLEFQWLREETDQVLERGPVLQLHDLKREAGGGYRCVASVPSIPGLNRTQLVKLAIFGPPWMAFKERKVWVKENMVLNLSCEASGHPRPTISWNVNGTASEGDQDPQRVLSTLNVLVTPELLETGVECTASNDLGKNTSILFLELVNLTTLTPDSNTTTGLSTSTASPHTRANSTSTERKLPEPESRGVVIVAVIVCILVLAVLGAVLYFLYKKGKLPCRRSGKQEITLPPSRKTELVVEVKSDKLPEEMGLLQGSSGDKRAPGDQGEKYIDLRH
# T2: Murine MCAM domain 1 and 2 (Ig1-2A) with human IgG Fc tag (mouse; human) (UniProt Q8R2Y2)
# T2 sequence (looked up): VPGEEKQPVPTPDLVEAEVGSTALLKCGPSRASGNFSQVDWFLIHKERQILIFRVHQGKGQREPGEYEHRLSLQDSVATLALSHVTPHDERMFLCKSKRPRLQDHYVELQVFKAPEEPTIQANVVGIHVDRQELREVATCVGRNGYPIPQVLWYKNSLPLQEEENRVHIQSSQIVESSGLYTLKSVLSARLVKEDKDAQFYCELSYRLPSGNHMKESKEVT
# B1: chimeric 1749 (antibody, V domains shown)
# VH: DVKLVESGGDLVKPGGSLKLSCAASGFTFSSYIMSWVRQTPEKRLEWVATISSGGSSTYYPDSVKGRFTISRDNAKNTLYLQMSSLKSEDTAMYYCTRDDDYDVKVFAYWGQGTLVTVSA
# VL: DIVMSQSPSSLAVSAGEKVTMNCKSSRSLLNSRIRKNYLAWYQQKPGQSPKLLIYWASTRESGVPDRFTGSGSGTDFTLTISSVQAEDLAVYYCKQSYNLLTFGAGTKLELK
# B2: h2107_VH2 + h2107_VL2 (antibody, V domains shown)
# VH: QVTLKESGPVLVKPTETLTLTCTVSGFSLTSNGVSWVRQPPGKALEWIAAISSGGSTYYNSAFKSRLSISRDTSKSQVVLTMTNMDPVDTATYYCARHRPFYFDYWGQGTLVTVSS
# VL: DIQMTQSPSSLSASVGDRVTITCKGSQNIYKSLAWFQLKPGKVPKLLIYDANSLQTGIPSRFSGSGSGTDFTLTISSLQPEDVATYYCQQYYSGYTFGGGTKVEIK
# notes: also called h2107VH2VL2; VH2VL2
# B3: h1749VH2 + h1749VL1 (antibody, V domains shown)
# VH: EVQLVESGGGLVQPGGSLRLSCAASGFTFSSYIMSWVRQAPGKRLEWVATISSGGSSTYYPDSVKGRFTISRDNAKNSLYLQMNSLRAEDTAVYYCTRDDDYDVKVFAYWGQGTMVTVSS
# VL: DIVMTQSPDSLAVSLGERATINCKSSRSLLNSRIRKNYLAWYQQKPGQPPKLLIYWASTRESGVPDRFSGSGSGTDFTLTISSLQAEDVAVYYCKQSYNLLTFGQGTKVEIK
# B4: h2120_VH5 + h2120_VL3 (antibody, V domains shown)
# VH: QVTLKESGPVLVKPTETLTLTCTVSGFSLTSNAVSWVRQPPGKALEWIAAISSGGTTYYNSAFKSRLTISRDTSKSQVVLTMTNMDPVDTATYYCARRYGYGWYFDFWGQGTLVTVSS
# VL: DIQMTQSPSSLSASVGDRVTINCKASQNIYNSLAWYQQKPGKAPKVLIFNANSLQTGIPSRFSGSGSGTDFTLTISSLQPEDFATYYCQQFYSGYTFGQGTKLEIK
# B5: h1749VH2 + h1749VL2 (antibody, V domains shown)
# VH: B3 VH
# VL: B3 VL with S69T
# B6: mouse anti-human MCAM monoclonal antibody clone 1174.1.3 (antibody, V domains shown)
# VH: QIQLVQSGPELKKPGETVKISCKASGYTFTNYGMNWVKQAPGKGLKWMGWINTYTGEPTYADDFKGRFALSLETSASTAYLQINNLKNEDMATYFCARYRYNKYERAMDYWGQGTSVTVSS
# VL: DIVLTQSPASLAVSLGQRATISCRASKSVSTSGYSYMYWYQQKPGQPPKLLIYLASNLESGVPARFSGSGSGTDFTLNIHPVEEEDAATYYCQHSRELPFTFGSGTKLEIK
# B7: mouse anti-human MCAM monoclonal antibody clone 1749.1.3 (antibody, V domains shown)
# VH: B1 VH
# VL: B1 VL
# B8: mouse anti-human MCAM monoclonal antibody clone 1414.1.2 (antibody, V domains shown)
# VH: EIQLQQTGPELVKPGASVKISCKASGYSFTDYIMLWVKQSHGKSLEWIGNINPYSGSSGYNLKFKGKATLTVDKSSSTAYMQLNSLTSEDSAVYYCARGKDFAMDYWGQGTSVTVSS
# VL: B1 VL with N22S, R27Q, R33S, I34T, Y38F, L100R, L101Y, A105G, L111I
# B9: mouse anti-human MCAM monoclonal antibody clone 1415.1.1 (antibody, V domains shown)
# VH: QVQLQQPGAELVQPGAPVKLSCKASGYIFTSYWMNWVKQRPGRGLEWIGRIDPSDSKIHYNQKFKDKATLTVDRSSSTAYIQLGSLTSEDSAVYYCAKEGGLRRGDYAMDYWGQGTSVTVSS
# VL: DIVMTQSPATLSVTPGDRVSLSCRASQSISDYLHWYQQKSHESPRLLIKYASQSISGIPSRFSGSGSGSDFTLSINSVEPEDVGVYYCQNGHNFPRTFGGGTKLEIK
# B10: h2107_VH1 + h2107_VL2 (antibody, V domains shown)
# VH: B2 VH with S68T
# VL: B2 VL
# B11: h2107_VH3 + h2107_VL2 (antibody, V domains shown)
# VH: B2 VH with S68T, D72N
# VL: B2 VL
# B12: h1749VH1 + h1749VL1 (antibody, V domains shown)
# VH: B3 VH with R44G
# VL: B3 VL
# B13: h2120_VH1 + h2120_VL3 (antibody, V domains shown)
# VH: B4 VH with A33G
# VL: B4 VL
# B14: h2120_VH3 + h2120_VL3 (antibody, V domains shown)
# VH: B4 VH with N32S, A33G
# VL: B4 VL
# B15: h2120_VH2 + h2120_VL3 (antibody, V domains shown)
# VH: B4 VH with A33G, T68S
# VL: B4 VL
# B16: anti-MCAM monoclonal antibody clone 15 (antibody, V domains shown)
# VH: EVRLVESGGGLVQPGKSMKLSCVASGFKFSNYYMSWVRQAPAKGLEWVASISDGGGDTFCRDLVKGRFTISRDNAKSTLYLQMDSLRPEDTATYYCARRGAAMGGVMDAWGQGTSVTVSS
# VL: DIVMTQSPSSLAVSAGETVSIHCKSSQSLLYSGTQKNYLAWFQQKPGQSPKLLIFWASTRQSGVPDRFIGRGSGTDFTLTISGVQAEDLAIYYCQQYYDTLTDTFGAGTKLELKR
# Molecular target: T1, human MCAM (melanoma cell adhesion molecule), expressed on transfected CHO cells (human)
# Assay: bar chart 'Top three IC50s repeat': IC50 of blocking of laminin 411 binding to hMCAM-expressing CHO cells
row,binding,Binder
1,binds,B1
2,binds,B2
3,binds,B3
4,binds,B4

# Molecular target: T1, human MCAM (melanoma cell adhesion molecule), expressed on transfected CHO cells (human)
# Assay: blocking assay of the re-expressed antibodies (Table 7 'Blocking IC50'; laminin/FACS assay of paragraph 438): % inhibition of laminin 411 binding to hMCAM-expressing CHO cells; the legend box prints VH2VL2, FIG. 29B and Table 7 print VH2VL1
row,binding,Binder
1,binds,B5

# Molecular target: T1, human MCAM (melanoma cell adhesion molecule), expressed on transfected CHO cells (human)
# Assay: blocking assay of the re-expressed antibodies (Table 7 'Blocking IC50'; laminin/FACS assay of paragraph 438): % inhibition of laminin 411 binding to hMCAM-expressing CHO cells
row,binding,Binder
1,binds,B1
2,binds,B2
3,binds,B4

# Molecular target: T1, human MCAM (melanoma cell adhesion molecule), expressed on transfected CHO cells (human)
# Assay: summary of Examples 11 and 12
row,binding,Binder
1,binds,B6
2,binds,B7
3,binds,B8
4,binds,B9

# Molecular target: T1, human MCAM (melanoma cell adhesion molecule), expressed on transfected CHO cells (human)
# Assay: laminin/FACS blocking assay: recombinant laminin 411 added to hMCAM-expressing CHO cells with varying antibody, bound laminin detected with labelled anti-laminin by flow cytometry (MFI); blocked ligand laminin 411
row,binding,Binder
1,binds,B1
2,binds,B7
3,binds,B2
4,binds,B10
5,binds,B11
6,binds,B5
7,binds,B12
8,binds,B13
9,binds,B14
10,binds,B15

# Molecular target: T2, Murine MCAM domain 1 and 2 (Ig1-2A) with human IgG Fc tag (mouse; human)
# Assay: ForteBio Octet Red, Fc-tagged domains on anti-human IgG Fc sensors
row,binding,Binder
1,binds,B16
